Reference: PubChem BioAssay AID2551 (National Center for Advancing Translational Sciences (NCATS), 2010)
In all, about 310,000 compounds went through this assay and about 17,000 (5.5%) were called active. This list was built around the results that the source calls inconclusive (neither active nor inactive); the mix of calls is not that of the screen. Calls come from the whole dose curve; as a rule, active = well fitted inhibition curve with a large enough effect; inconclusive = small, poorly fitted or top-dose-only effect, or effect the other way; inactive = no such curve, though single readings can be large or run the other way. A potency beside an inconclusive call is a rough fit, not a confirmed value.

Protein sequences, listed by entry. Tags and fused reporters are not part of them. Lines headed by an entry give the natural chain unless they say otherwise; changes in a name come on top.
UniProt P51450: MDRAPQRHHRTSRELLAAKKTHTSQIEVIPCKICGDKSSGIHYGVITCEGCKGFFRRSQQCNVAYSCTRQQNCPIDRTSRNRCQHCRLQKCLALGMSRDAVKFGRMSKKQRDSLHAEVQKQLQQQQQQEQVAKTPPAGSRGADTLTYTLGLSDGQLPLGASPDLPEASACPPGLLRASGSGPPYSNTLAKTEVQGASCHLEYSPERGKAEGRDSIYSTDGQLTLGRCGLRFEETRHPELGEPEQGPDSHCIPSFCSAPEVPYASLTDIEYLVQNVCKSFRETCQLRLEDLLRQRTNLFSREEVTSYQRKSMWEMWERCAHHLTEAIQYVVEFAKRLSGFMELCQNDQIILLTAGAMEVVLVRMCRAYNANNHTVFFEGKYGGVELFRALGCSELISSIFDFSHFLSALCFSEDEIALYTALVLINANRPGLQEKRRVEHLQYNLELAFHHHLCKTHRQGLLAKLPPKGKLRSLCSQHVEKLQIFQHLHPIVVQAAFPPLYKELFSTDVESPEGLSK

Target: Nuclear receptor ROR-gamma (Mus musculus) (UniProt P51450)
Test: qHTS for inhibitors of ROR gamma transcriptional activity; note: nearly all actives have a fitted effect of over 60% in size
Details: Drosophila S2 Gal4-RORgamma UAS-luciferase reporter, 20 h; activity change, negative = inhibition: at 53.6 µM (top of the series)
Procedure, shortened: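 Stably transfected Drosophila Schneider cells are the test system, with ROR gamma fused to Gal4 and luciferase under UAS control; luminescence is read after 20 hr of 700 uM copper sulfate induction at ambient temperature.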
% is set by controls: 0 for no effect and ±100 for the full control effect; potency is the fitted concentration of half-maximal effect.

Structure (SMILES) | Potency | activity change, negative = inhibition
COCCCNc1nc2c(c(=O)n(Cc3cccc(Br)c3)c(=O)n2C)n1C | inactive | –
CCOC(=O)c1c(C)n(O)c2ccc(Cl)cc2c1=O | inconclusive: 12.6 µM [inhibitor, partial curve] | –
CCn1ncc(Cl)c1C(=O)Nc1cc(Cl)ccc1Cl | inactive | –
Cc1ccc(-c2cn(-c3ccccc3F)c(=S)[nH]2)cc1 | active: 1.78 µM | –
Cc1ccc(C(=O)Nc2ccccc2C(=O)NC(C(=O)O)C(C)C)cc1 (configuration not stated) | inconclusive: 35.5 µM [inhibitor, single point] | –
COc1ccc2nc(/C(C#N)=C\c3ccc(Oc4ccc([N+](=O)[O-])cn4)cc3)[nH]c2c1 | inconclusive: 35.5 µM [inhibitor, single point] | –
Cc1ccc(-c2csc(NC(=O)CSc3nc4ccccc4c(=O)n3CCCN(C)C)n2)cc1 | inconclusive: 25.1 µM [inhibitor, single point] | –
CC(=O)N1CCN(S(=O)(=O)c2ccc(F)c(Cl)c2)CC1 | inactive | –
C=CCn1c(=N)n(CC(=O)c2ccccc2)c2ccccc21 | inactive | –
COc1cc(SC)ccc1C(=O)NCCOc1ccc(C)c(C)c1 | inconclusive: 35.5 µM [activator, single point] | –
Cc1cc(C)cc(NC(=S)N2CCN(c3ncc(C(F)(F)F)cc3Cl)CC2)c1 | active: 3.55 µM | –
Cc1ccc(NC(=O)c2ccccc2NS(=O)(=O)c2ccc(Cl)s2)cc1 | inconclusive: 31.6 µM [inhibitor, single point] | –
COc1ccc(-n2ncc3c2CC(C)(C)CC3NC(=O)c2ccnn2C)cc1 (configuration not stated) | inconclusive: 22.4 µM [activator, single point] | –
Cc1cc(SCC(=O)c2ccc(Cl)cc2)nc(=O)[nH]1 | inconclusive: 0.112 µM [activator, full curve] | –
CC(C)(C)C(=O)Nc1cc(C(F)(F)F)ccc1N1CCOCC1 | inconclusive: 35.5 µM [activator, single point] | –
CCN(CC)c1ccc(/C=C/C(=O)c2ccc(Br)cc2)cc1 | inconclusive: 35.5 µM [activator, partial curve, poor fit] | –
O=C(CSc1nnc(-c2ccccc2Cl)o1)Nc1ccc2c(c1)OCCO2 | inconclusive: 10 µM [inhibitor, partial curve, poor fit] | –
CCOC(=O)c1sc(N2N=C(C)C(N=Nc3cccc(C)c3)C2=O)nc1C (configuration not stated) | active: 11.2 µM | –
CCn1c(SCC(=O)c2ccccc2)nc2ccccc2c1=O | inconclusive: 20 µM [activator, single point] | –
COC(=O)[C@@]1(Cc2ccc(OC)cc2)[C@H]2c3cc(C(=O)N(C)C)n(Cc4ccc(Cl)c(C(F)(F)F)c4)c3C[C@H]2CN1C(=O)c1ccccc1 | inconclusive: 5.01 µM [activator, partial curve] | –
COCCNC(=O)c1c[nH]c2ccc(OC)cc2c1=O | inconclusive: 2.82 µM [inhibitor, full curve, poor fit] | –
CC(=O)Nc1ccc(SCC(=O)c2ccc(Br)s2)cc1 | inconclusive: 14.1 µM [inhibitor, single point] | –
COc1ccc(/C=N/NC(=O)c2ccccc2NC(=O)c2ccco2)c(OC)c1 | inconclusive: 1.58 µM [inhibitor, partial curve] | –
Cc1ccc(C(=O)OCc2cn3ccccc3n2)cc1 | – | inactive: 2.53% [at 0.365 µM]

Structure (SMILES) | Potency | activity change, negative = inhibition
COC(CC(=O)NNC(=S)Nc1ccc(Cl)cc1)OC | inconclusive: 25.1 µM [inhibitor, single point] | –
O=C(O)CN1CCc2ccccc2C1 | inactive | –
CCc1ccc(-c2cc(C(=O)N3N=C(C(F)F)CC3(O)C(F)F)c3ccccc3n2)cc1 (configuration not stated) | inconclusive: 15.8 µM [inhibitor, single point] | –
Cc1ccc(S(=O)(=O)N(C)C)cc1NC(=S)NC(C)CCCC(C)C (configuration not stated) | active: 17.8 µM | –
CC(C)=CCC/C(C)=C/CC/C(C)=C/CSCC(=O)O | inconclusive: 11.2 µM [inhibitor, single point] | –
O=C(COc1ccc(Cl)cc1[N+](=O)[O-])N/N=C/c1cccs1 | inconclusive: 22.4 µM [inhibitor, single point] | –
C[C@H](NC(=O)c1nc[nH]c1C(=O)NC(c1ccccc1)c1ccccc1)C(=O)OCc1ccccc1 | inconclusive: 14.1 µM [inhibitor, partial curve, poor fit] | –
COc1ccccc1CNC(=O)CN(CCc1ccccc1)S(C)(=O)=O | inactive | –
COc1ccc(-c2cc3ncc(-c4ccccc4)c(N)n3n2)cc1 | inconclusive: 0.1 µM [inhibitor, full curve, poor fit] | –
CCOc1ccc(-n2c(-c3ccccc3)c[nH]c2=S)cc1 | active: 2 µM | –
COC(=O)C(O)(CC(=O)Nc1ccc(C)c(F)c1)C(F)(F)F (configuration not stated) | inconclusive: 5.62 µM [inhibitor, single point] | –
Cc1scc(C(=O)Nc2ccon2)c1-c1ccccc1 | inactive | –
Cc1ccc(-c2nc3cccnc3o2)cc1NC(=O)COc1ccc(C(C)(C)C)cc1 | inactive | –
CCOc1ccc(N(C)Cc2cc(=O)oc3ccc(OC)cc23)cc1 | inconclusive: 10 µM [activator, partial curve] | –
O=C(NC1CCCCC1)c1cc2ccccc2cc1O | inactive | –
COc1ccc(NC(=O)/C=C/c2ccccc2)cn1 | inconclusive: 1.12 µM [activator, full curve] | –
COc1ccc(-c2nc3cnc(Nc4cccc(OC)c4)nc3n(Cc3cccs3)c2=O)cc1 | inactive | –
CC(C)NC[C@H](O)c1cc(O)cc(O)c1 | inactive | –
Cn1cc(SCC(=O)Nc2ccc3c(c2)OCCO3)c2ccccc21 | inconclusive: 35.5 µM [activator, single point] | –
N#C/C(=C\c1ccc(Sc2ccccc2)o1)c1nc2ccccc2[nH]1 | inconclusive: 14.1 µM [activator, partial curve] | –
CCc1cccc(NC(=S)N(CCN(C)C)C(C)c2ccncc2)c1 (configuration not stated) | active: 14.1 µM | –
Cc1c(Br)c([N+](=O)[O-])nn1CC(=O)Nc1cccc2nonc12 | inactive | –
CCC(C)c1ccc(NC(=O)c2c([N+](=O)[O-])cnn2CC)cc1 (configuration not stated) | inconclusive: 15.8 µM [activator, single point] | –
CCn1ncc(/C=C/C(=O)c2ccccc2)c1C | inactive | –

Given as labelled records: part of the list above.
CCOC(=O)c1sc(N2N=C(C)C(N=Nc3cccc(C)c3)C2=O)nc1C (configuration not stated)
  Potency: active: 11.2 µM
CCn1c(SCC(=O)c2ccccc2)nc2ccccc2c1=O
  Potency: inconclusive: 20 µM [activator, single point]
COC(=O)[C@@]1(Cc2ccc(OC)cc2)[C@H]2c3cc(C(=O)N(C)C)n(Cc4ccc(Cl)c(C(F)(F)F)c4)c3C[C@H]2CN1C(=O)c1ccccc1
  Potency: inconclusive: 5.01 µM [activator, partial curve]
COCCNC(=O)c1c[nH]c2ccc(OC)cc2c1=O
  Potency: inconclusive: 2.82 µM [inhibitor, full curve, poor fit]

Remaining list, next part:

Structure (SMILES) | Potency | activity change, negative = inhibition
O=C(Nc1cccc(Br)c1)c1ccc(Cl)c(S(=O)(=O)N2CCOCC2)c1 | inactive | –
Cc1sc(NC(=O)CN2CCOCC2)nc1-c1ccc2c(c1)CCN2S(=O)(=O)c1ccccc1 | active: 7.08 µM | –
CC(OC(=O)c1ccccc1NS(=O)(=O)c1cccc(C(F)(F)F)c1)C(=O)N(C)Cc1ccccc1 (configuration not stated) | inconclusive: 12.6 µM [activator, partial curve] | –
COc1ccccc1CNC(=O)c1cccc(-c2ccccc2OC)n1 | inconclusive: 44.7 µM [activator, single point] | –
O=C(N/N=C/c1sc(N2CCCCC2)nc1-c1cccs1)c1cccnc1 | active: 7.94 µM | –
C/C(=N\Nc1cccc([N+](=O)[O-])c1)c1cc2ccccc2o1 | inconclusive: 2.51 µM [activator, full curve] | –
COc1cccc(Cn2cc(C(=O)NCCN(C)C)nn2)c1 | inconclusive: 5.62 µM [inhibitor, single point] | –
COc1ccc([N+](=O)[O-])cc1NC(=O)CN(C)S(=O)(=O)c1ccccc1 | inactive | –
COc1ccccc1N1CCN(S(=O)(=O)c2ccc3nc(-c4ccccc4)[nH]c3c2)CC1 | inconclusive: 8.91 µM [activator, partial curve] | –
COc1ccc(/C=N/N2CCN(c3ccccc3OC)CC2)cc1OC | inactive | –
O=C1Nc2ccc([N+](=O)[O-])cc2OC1CCN1CCOCC1 (configuration not stated) | inactive | –
O=C(NNC(=S)Nc1ccc(Cl)c(Cl)c1)c1cccc([N+](=O)[O-])c1 | inactive | –
COc1cccc(Cn2cccc(NC(=O)Nc3ccccc3C)c2=O)c1 | inconclusive: 12.6 µM [inhibitor, partial curve] | –
O=C(CSc1nc2ccncc2[nH]1)Nc1ccccc1C(F)(F)F | inconclusive: 11.2 µM [activator, partial curve] | –
S=C(NCc1cccnc1)Nc1ccc(Cl)c(Cl)c1 | inconclusive: 35.5 µM [inhibitor, single point] | –
C[C@@H]1CC[C@]2(C(=O)O)CC[C@]3(C)C(=CCC4[C@@]5(C)C[C@@H](O)[C@H](O)[C@@](C)(CO)C5[C@H](O)C[C@]43C)C2[C@H]1C (some centres not stated) | inconclusive: 15.8 µM [inhibitor, single point] | –
COc1ccc(C2CC(c3ccccc3)=NN2C(=O)CCC(=O)O)cc1 (configuration not stated) | inconclusive: 5.62 µM [inhibitor, partial curve] | –
CN(C)Cc1nc2c(c(=O)[nH]1)C(C)(C)Cc1ccccc1-2 | inconclusive: 2.82 µM [inhibitor, full curve] | –
COc1ccc(C(=O)/C=C/Nc2ccccn2)cc1 | active: 3.55 µM | –
CN(C)c1ccc(N=Nc2ccc(C(=O)O)cc2)cc1 | active: 0.501 µM | –
N=C1/C(=C/c2ccc(-c3cccc(C(=O)O)c3)o2)C(=O)N=C2SC=C(c3ccccc3)N12 | inactive | –
O=C(Cn1c(-c2ccc(Cl)cc2)noc1=O)N1CCN(c2ccccc2F)CC1 | inconclusive: 5.62 µM [inhibitor, single point] | –
COc1ccc(CCNc2cc(N3CCN(C(=O)c4ccc(C)cc4)CC3)ccc2[N+](=O)[O-])cc1OC | inconclusive: 3.16 µM [activator, partial curve] | –
COc1ccc(Br)cc1C(=O)NC(=S)Nc1ccc(CN2CCOCC2)cc1 | inconclusive: 14.1 µM [inhibitor, single point] | –
